We go through three substances from patent US9155795B2 (Anchor Therapeutics, Inc., priority 2010, dated 2015).

The nature of this data set: general procedure: Fmoc solid-phase peptide synthesis; Rink amide resin; HBTU/HOBt. Conditions: whole synthesis, scale 0.1 mmol.
For C28H45O2— MGYQKKLRSMTDKYRL-amide, the isolated mass is 1.8 mg.

Take CH3(CH2)15SO2— GGYQKKLRSATDKYRL-amide: the isolated mass is 2.9 mg.

CH3(CH2)15SO2— GGYQKKLRpHTDKYRL-amide gave an isolated mass of 3.5 mg.
